# The list is a part of this screen's results and no random one: it is rich in T/C values a quarter to a half above the control, in often repeated tests (any T/C) and in doses without a T/C. Further doses and runs are listed elsewhere. T/C: endpoint of the treated group in % of that of the vehicle group. Some doses have a count of surviving animals in place of a T/C: the source files T/C as zero there, which appears to mark a toxic dose or a test without result, not a measured value. Some survivor counts are full or nearly so, which does not show that the dose was tolerated: survival well below the control is almost never listed, so the zero probably covers shortened survival too. Survivors were counted at the toxicity check, usually on the fifth day, unless a day is given; later deaths do not show. Schedule codes are those of the source, read here as Q, the interval in days (D) or hours (H), X, the number of doses. Some doses were run more than once; the results are listed from low to high. Some structures stand for samples that the source files as different forms (salt, stereo form or complex); doses refer to the form tested. Additions like (4×) say how often a value occurs here. Where survival is the endpoint, the PubChem record calls one and a half times the control and up active, and a quarter to a half above the control has no call in these data; cut-offs in other NCI protocols can differ. Some T/C values are followed by the survivors on the day toxicity was checked, most often the fifth; where none is given, no animal had died by that day.
# Test system: CD2F1 mice, ip Colon 26 adenocarcinoma, median survival T/C
# Assay: NCI In Vivo Anticancer Drug Screen. Data for tumor model Colon 26 Adenocarcinoma (intraperitoneal) in CD2F1 (CDF1) mice
# Conditions: T/C endpoint: median survival time, higher T/C = longer survival
# Experimental: The antitumor activity of compounds was measured in mice bearing transplantable tumors. Survival or tumor size were measured and the results are expressed as the measurement made in the treated group (T) divided by the measurement made in the vehicle treated control group (C). The tumor model used in this assay is Colon 26 Adenocarcinoma (intraperitoneal) in CD2F1 (CDF1) mice
# [1] = dose: 100.0 mg/kg/injection, schedule: Q01DX001 (ip), vehicle: saline
structure (smiles),measurement,setting,value
CC(=O)[C@]1(O)Cc2c(O)c3c(c(O)c2[C@@H](OC2CC(N)C(O)C(C)O2)C1)C(=O)c1c(O)cccc1C3=O (stereo not given in full),T/C,"dose: 1.2 mg/kg/injection, schedule: Q07DX002 (iv), vehicle: water",142 % of control
same,T/C,"dose: 216.0 micrograms/kg/injection, schedule: Q04DX003 (ip), vehicle: water",130 % of control
same,T/C,"dose: 360.0 micrograms/kg/injection, schedule: Q04DX003 (ip), vehicle: water",141 % of control
same,survivor count,"dose: 1000.0 micrograms/kg/injection, schedule: Q04DX003 (ip), vehicle: water",8 of 8
Nc1nc([Se])c2ncn(C3OC(CO)C(O)C3O)c2n1 (stereo not given),survivor count,"dose: 128.0 mg/kg/injection, schedule: Q04DX003 (ip), vehicle: saline",0 of 10
same,survivor count,"dose: 128.0 mg/kg/injection, schedule: Q04DX003 (ip), vehicle: suspension in saline",3 of 10
ClC(Cl)=C(Cl)Cl,survivor count,"dose: 600.0 mg/kg/injection, schedule: Q04DX002 (ip), vehicle: other",10 of 10
same,survivor count,"dose: 1200.0 mg/kg/injection, schedule: Q04DX002 (ip), vehicle: other",10 of 10
CN(C)C=O,survivor count,"dose: 200.0 mg/kg/injection, schedule: Q04DX002 (ip), vehicle: saline",10 of 10
same,survivor count,"dose: 3200.0 mg/kg/injection, schedule: Q04DX002 (ip), vehicle: saline",6 of 10
CN(C1=NS(=O)(=O)N=C(N(C)c2ccccc2)O1)c1ccccc1,survivor count,"dose: 100.0 mg/kg/injection, schedule: Q04DX003 (ip), vehicle: Klucel (hydroxypropylcellulose) (HPC)",9 of 10
same,survivor count,"dose: 400.0 mg/kg/injection, schedule: Q04DX003 (ip), vehicle: Klucel (hydroxypropylcellulose) (HPC)",10 of 10
CN(C)c1nc(N(C)C)nc(N(C)C)n1,T/C,"dose: 20.0 mg/kg/injection, schedule: Q04DX003 (ip), vehicle: saline with Tween-80, evaluated on day 60",95 and 101 % of control
same,T/C,"dose: 20.0 mg/kg/injection, schedule: Q04DX003 (ip), vehicle: saline with Tween-80, evaluated on day 70","93, 108, 111 % of control"
same,T/C,"dose: 40.0 mg/kg/injection, schedule: Q04DX003 (ip), vehicle: saline with Tween-80, evaluated on day 60",99 and 101 % of control
same,T/C,"dose: 40.0 mg/kg/injection, schedule: Q04DX003 (ip), vehicle: saline with Tween-80, evaluated on day 70","98, 108, 110 % of control"
same,T/C,"dose: 80.0 mg/kg/injection, schedule: Q04DX003 (ip), vehicle: saline with Tween-80, evaluated on day 60",103 and 105 % of control
same,T/C,"dose: 80.0 mg/kg/injection, schedule: Q04DX003 (ip), vehicle: saline with Tween-80, evaluated on day 70","95, 103, 118 % of control"
same,T/C,"dose: 160.0 mg/kg/injection, schedule: Q04DX003 (ip), vehicle: saline with Tween-80, evaluated on day 60",107 and 112 % of control
same,T/C,"dose: 160.0 mg/kg/injection, schedule: Q04DX003 (ip), vehicle: saline with Tween-80, evaluated on day 70","96, 115, 118, 130 % of control"
same,T/C,"dose: 320.0 mg/kg/injection, schedule: Q04DX003 (ip), vehicle: saline with Tween-80, evaluated on day 60",121 [9 of 10 alive] and 125 % of control
same,T/C,"dose: 320.0 mg/kg/injection, schedule: Q04DX003 (ip), vehicle: saline with Tween-80, evaluated on day 70",108 [9 of 10 alive] and 118 % of control [9 of 10 alive]
same,survivor count,"dose: 320.0 mg/kg/injection, schedule: Q04DX003 (ip), vehicle: saline with Tween-80",1 of 10 and 10 of 10
same,survivor count,"dose: 512.0 mg/kg/injection, schedule: Q04DX003 (ip), vehicle: saline with Tween-80",10 of 10
same,survivor count,"dose: 6400.0 mg/kg/injection, schedule: Q04DX003 (ip), vehicle: saline with Tween-80",6 of 10
O=C(O)c1ccc(C(=O)O)c(C(=O)O)c1.[NH-]C1CCCCC1[NH-].[Pt+2],T/C,"dose: 6.0 mg/kg/injection, schedule: Q01DX004 (ip), vehicle: sodium bicarbonate",126 % of control
same,survivor count,"dose: 13.2 mg/kg/injection, schedule: Q01DX001 (ip), vehicle: saline",10 of 10
same,survivor count,"dose: 19.8 mg/kg/injection, schedule: Q01DX001 (iv), vehicle: saline",10 of 10
same,T/C,"dose: 21.0 mg/kg/injection, schedule: Q04DX002 (ip), vehicle: sodium bicarbonate",143 % of control
same,survivor count,"dose: 29.6 mg/kg/injection, schedule: Q01DX001 (iv), vehicle: saline",10 of 10
same,T/C,"dose: 30.0 mg/kg/injection, schedule: Q04DX004 (iv), vehicle: sodium bicarbonate",135 % of control
same,survivor count,"dose: 44.4 mg/kg/injection, schedule: Q01DX001 (ip), vehicle: saline",9 of 10
same,survivor count,"dose: 56.0 mg/kg/injection, schedule: Q04DX002 (ip), vehicle: sodium bicarbonate",10 of 10 on day 7
same,survivor count,"dose: 66.7 mg/kg/injection, schedule: Q01DX001 (ip), vehicle: saline",10 of 10
same,survivor count,"dose: 66.7 mg/kg/injection, schedule: Q01DX001 (iv), vehicle: saline",10 of 10
same,survivor count,"dose: 90.0 mg/kg/injection, schedule: Q04DX002 (ip), vehicle: sodium bicarbonate",5 of 12 on day 7
same,survivor count,[1],1 of 10
same,survivor count,"dose: 100.0 mg/kg/injection, schedule: Q01DX001 (iv), vehicle: saline",10 of 10
O=C(N/N=C\c1cc(Br)cc(Br)c1O)N/N=C/c1cc(Br)cc(Br)c1O,T/C,"dose: 400.0 mg/kg/injection, schedule: Q04DX003 (ip), vehicle: saline with Tween-80",129 % of control
O=C1c2ccccc2C(=O)c2c(NCCNCCO)ccc(NCCNCCO)c21,T/C,"dose: 2.0 mg/kg/injection, schedule: Q01DX009 (ip), vehicle: acid diluted with saline",142 % of control
same,T/C,"dose: 10.4 mg/kg/injection, schedule: Q04DX003 (ip), vehicle: saline",145 % of control
same,survivor count,"dose: 20.0 mg/kg/injection, schedule: Q01DX009 (ip), vehicle: saline",10 of 10
same,T/C,"dose: 21.6 mg/kg/injection, schedule: Q01DX001 (ip), vehicle: saline",136 % of control
same,survivor count,"dose: 30.0 mg/kg/injection, schedule: Q01DX009 (ip), vehicle: saline",10 of 10
same,survivor count,"dose: 32.0 mg/kg/injection, schedule: Q01DX009 (ip), vehicle: saline",10 of 10
same,T/C,"dose: 32.0 mg/kg/injection, schedule: Q04DX003 (ip), vehicle: Klucel (hydroxypropylcellulose) (HPC)",141 % of control
same,T/C,"dose: 36.0 mg/kg/injection, schedule: Q01DX001 (ip), vehicle: saline",138 % of control
same,survivor count,"dose: 40.0 mg/kg/injection, schedule: Q01DX009 (ip), vehicle: saline",10 of 10 (2×)
same,T/C,"dose: 60.0 mg/kg/injection, schedule: Q01DX001 (ip), vehicle: saline",127 % of control
same,T/C,"dose: 64.0 mg/kg/injection, schedule: Q04DX003 (ip), vehicle: Klucel (hydroxypropylcellulose) (HPC)",148 % of control
same,T/C,[1],138 % of control [9 of 10 alive]
same,survivor count,"dose: 100.0 mg/kg/injection, schedule: Q07DX003 (iv), vehicle: Klucel (hydroxypropylcellulose) (HPC)",4 of 10
same,survivor count,"dose: 128.0 mg/kg/injection, schedule: Q04DX003 (ip), vehicle: Klucel (hydroxypropylcellulose) (HPC)","4 of 10, 7 of 10, 9 of 10"
same,survivor count,"dose: 128.0 mg/kg/injection, schedule: Q04DX003 (ip), vehicle: water",5 of 10 and 6 of 10
same,survivor count,"dose: 167.0 mg/kg/injection, schedule: Q01DX001 (ip), vehicle: saline",2 of 10
same,survivor count,"dose: 200.0 mg/kg/injection, schedule: Q07DX003 (iv), vehicle: Klucel (hydroxypropylcellulose) (HPC)",4 of 10
same,survivor count,"dose: 256.0 mg/kg/injection, schedule: Q04DX003 (ip), vehicle: Klucel (hydroxypropylcellulose) (HPC)","0 of 10, 0 of 9, 1 of 10"
same,survivor count,"dose: 256.0 mg/kg/injection, schedule: Q04DX003 (ip), vehicle: water",2 of 10 and 5 of 10
same,survivor count,"dose: 400.0 mg/kg/injection, schedule: Q07DX003 (iv), vehicle: Klucel (hydroxypropylcellulose) (HPC)",2 of 10
same,survivor count,"dose: 512.0 mg/kg/injection, schedule: Q04DX003 (ip), vehicle: Klucel (hydroxypropylcellulose) (HPC)",0 of 10 (2×)

# — PubChem BioAssay AID210 (DTP/NCI, 2004)
